These are yes or no findings as the source states them, for the method shown. Binding seen in cells or lysates may run through a third protein. Some results given as binding are weak or reduced against the parent protein; the word gives no strength.
T1: proBDNF (rat (endogenous in hippocampal neuron cultures and hippocampus)) (UniProt P23363)
T1 sequence: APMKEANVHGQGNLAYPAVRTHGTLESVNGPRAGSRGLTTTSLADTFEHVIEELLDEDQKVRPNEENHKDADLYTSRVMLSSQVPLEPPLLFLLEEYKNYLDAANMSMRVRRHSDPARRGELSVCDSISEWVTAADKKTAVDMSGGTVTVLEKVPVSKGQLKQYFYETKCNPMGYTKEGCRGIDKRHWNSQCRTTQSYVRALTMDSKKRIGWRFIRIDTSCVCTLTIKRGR

Amino acid sequences for entries named in this document (tags omitted). A change or cut given only in a name is not applied to a line headed by its entry. Residues count along the entry.
UniProt Q16620, residues 32-430: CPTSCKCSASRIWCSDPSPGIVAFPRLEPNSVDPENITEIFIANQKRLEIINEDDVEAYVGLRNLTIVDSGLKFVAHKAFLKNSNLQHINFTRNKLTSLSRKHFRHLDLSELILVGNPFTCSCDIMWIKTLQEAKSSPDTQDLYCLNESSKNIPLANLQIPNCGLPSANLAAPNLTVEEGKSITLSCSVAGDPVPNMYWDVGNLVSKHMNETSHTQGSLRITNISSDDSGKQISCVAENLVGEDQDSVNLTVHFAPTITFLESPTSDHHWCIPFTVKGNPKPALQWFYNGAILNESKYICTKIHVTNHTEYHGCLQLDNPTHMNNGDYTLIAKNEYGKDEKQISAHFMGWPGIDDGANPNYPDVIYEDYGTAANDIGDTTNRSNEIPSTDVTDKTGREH
UniProt P07174, residues 30-425: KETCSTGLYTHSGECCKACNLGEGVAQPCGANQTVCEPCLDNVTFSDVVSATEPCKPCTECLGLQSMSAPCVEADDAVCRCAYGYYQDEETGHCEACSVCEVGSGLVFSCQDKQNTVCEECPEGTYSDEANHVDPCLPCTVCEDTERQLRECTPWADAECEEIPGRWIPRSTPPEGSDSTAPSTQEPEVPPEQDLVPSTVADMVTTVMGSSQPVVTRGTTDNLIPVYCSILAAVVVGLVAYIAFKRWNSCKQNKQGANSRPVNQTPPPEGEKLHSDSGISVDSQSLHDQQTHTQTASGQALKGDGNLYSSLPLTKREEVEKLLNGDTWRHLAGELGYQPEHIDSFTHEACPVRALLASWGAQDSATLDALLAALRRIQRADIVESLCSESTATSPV


Key:
[1] = biological target: T1, proBDNF (rat (endogenous in hippocampal neuron cultures and hippocampus)); assay: co-IP; hippocampus homogenates (modified RIPA buffer, 500 μg total protein) immunoprecipitated with 2 μg anti-proBDNF antibody at 4°C overnight, Protein A/G PLUS-agarose; Western blot with anti-p75NTR; control and SE animals, TrkB-Fc-infused (ipsilateral) and non-infused (contralateral) sides
[2] = biological target: recombinant human TrkB-Fc chimera protein (human) (UniProt Q16620); assay: condition: 2 μg TrkB-Fc with 500 μg of total protein; co-IP; homogenates of control and SE hippocampus (500 μg total protein, modified RIPA buffer, pre-cleared) mixed with 2 μg TrkB-Fc at 4°C overnight, TrkB-Fc precipitated with Protein A/G PLUS-agarose; Western blots probed for matBDNF and proBDNF; only the target purified

| binding [1] | binding [2] | Molecule |
| --- | --- | --- |
| binds | – | p75 NT receptor (p75NTR) (from UniProt P07174 30-425) |
| – | no binding | proBDNF (protein, UniProt P23363 19-249) APMKEANVHGQGNLAYPAVRTHGTLESVNGPRAGSRGLTTTSLADTFEHVIEELLDEDQKVRPNEENHKDADLYTSRVMLSSQVPLEPPLLFLLEEYKNYLDAANMSMRVRRHSDPARRGELSVCDSISEWVTAADKKTAVDMSGGTVTVLEKVPVSKGQLKQYFYETKCNPMGYTKEGCRGIDKRHWNSQCRTTQSYVRALTMDSKKRIGWRFIRIDTSCVCTLTIKRGR |

From paper PMC6375841
